Results published in patent US20230220036 (published 2023).
Non-standard residues stand in square brackets, D forms with d. *: point of attachment. His(Trt) = N[C@@H](Cc1cn(C(c2ccccc2)(c2ccccc2)c2ccccc2)cn1)C(=O)O; Pbf = Cc1c(C)c(S(=O)(=O)*)c(C)c2c1OC(C)(C)C2; Fmoc = O=C(OCC1c2ccccc2-c2ccccc21)*; Boc = CC(C)(C)OC(=O)*; Aib = CC(C)(N)C(=O)O; OtBu = CC(C)(C)O*; tBu = CC(C)(C)*

Tests used:
[1] = general procedure: hybrid (solid and solution phase) peptide synthesis; CTC resin (2-chlorotrityl chloride resin); DIC/oxyma; EDC·HCl/NMM for Gly-OtBu; settings: whole synthesis, RP-HPLC, confirmed by MALDI or LC-MS, scale of the general procedure CTC resin 50 grams (20 grams in some preparations)
[2] = general procedure: hybrid (solid and solution phase) peptide synthesis; CTC resin; DIC/oxyma; EDC·HCl/NMM for Gly-OtBu; settings: whole synthesis, scale of the general procedure CTC resin 50 grams (20 grams in some preparations); for crude purity (method not given): RP-HPLC, confirmed by MALDI or LC-MS

| Substance | crude HPLC purity [1] [%] | crude purity (method not given) [2] [%] | crude yield [2] [%] | final HPLC purity [1] [%] |
| --- | --- | --- | --- | --- |
| Boc-[His(Trt)][Aib]E(OtBu)G-OH | 96 | 97.02 | 92.5 | – |
| Fmoc-Gln(Trt)-Ala-Ala-Lys(PEG-PEG-γ-Glu-octadecane dioic acid)-Glu(OtBu)-Phe-Ile-Ala-Trp(Boc)-OH | – | 92.1 | 95.0 | – |
| Fmoc-S(tBu)Y(tBu)LE(OtBu)G-OH | – | 98.33 | 96.6 | – |
| Fmoc-Thr(tBu)-Phe-Thr(tBu)-Ser(tBu)-Asp(OtBu)-Val-Ser(Oxa)-OH | – | 99.42 | 99.42 | – |
| H-LVR(Pbf)GR(Pbf)G-OtBu | – | 96 | 74 | – |
| Semaglutide | – | – | – | 97.2 |
